# Values quoted from earlier work as cited in patent publication US11229634B2, “Methods for treating gastrointestinal disorders using FXR agonists” (Novartis AG, priority 2016, dated 2022).
# At least one compound was matched to its structure with a doubt left.
# Target: T1, FXR (Homo sapiens, UniProt Q96RI1)
# T1 construct: OCA was tested at doses between 5 mg and 50 mg in PBC subjects or NASH subjects; host or cells: human subjects (PBC, NASH), endogenous receptor
# T1 sequence (Q96RI1 1-486): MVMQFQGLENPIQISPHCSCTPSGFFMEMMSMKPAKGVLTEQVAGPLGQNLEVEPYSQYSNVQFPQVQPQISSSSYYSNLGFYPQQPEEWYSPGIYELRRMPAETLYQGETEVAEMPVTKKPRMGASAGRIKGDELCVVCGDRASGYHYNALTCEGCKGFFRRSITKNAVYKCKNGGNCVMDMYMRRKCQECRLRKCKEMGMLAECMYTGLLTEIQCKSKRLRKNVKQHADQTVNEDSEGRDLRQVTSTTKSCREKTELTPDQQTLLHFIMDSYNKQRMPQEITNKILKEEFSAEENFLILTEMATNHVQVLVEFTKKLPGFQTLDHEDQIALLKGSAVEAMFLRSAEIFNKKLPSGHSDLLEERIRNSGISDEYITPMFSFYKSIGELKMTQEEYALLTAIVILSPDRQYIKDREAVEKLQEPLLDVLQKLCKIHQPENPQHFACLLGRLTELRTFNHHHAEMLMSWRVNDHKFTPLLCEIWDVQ
# Conditions: PBC and NASH subjects, doses between 5 mg and 50 mg; cited from earlier work
structure (smiles),measurement,value
"CC[C@H]1[C@@H](O)[C@@H]2[C@H](CC[C@]3(C)[C@@H]([C@H](C)CCC(=O)O)CC[C@@H]23)[C@@]2(C)CC[C@@H](O)C[C@@H]12 [OCA, 6α-ethyl-chenodeoxycholic acid]",efficacy in clinical studies,showed efficacy
